{
  "source": "PubChem BioAssay AID1688",
  "about": "(National Center for Advancing Translational Sciences (NCATS), 2009)",
  "note": "Among all 220,000 compounds or so, about 2,400 (1.1%) were called active. This list was built around the results that the source calls inconclusive (neither active nor inactive); the mix of calls is not that of the screen. The call rests on the fitted dose curve; in most records, active means well fitted inhibition curve with a large enough effect; inconclusive means small, poorly fitted or top-dose-only effect, or effect the other way; inactive means no such curve, though single readings can be large or run the other way. Where the call is inconclusive, the potency comes from a doubtful curve fit. On the % scale 0 is the no-effect control and ±100 the full control effect; potency means the concentration at half of the fitted maximal effect.",
  "data": [
    {"test": "qHTS Multiplex Assay to Identify Dual Action Probes in a Cell Model of Huntington: Aggregate Formation (GFP); further: nearly all actives have a fitted effect of over 60% in size", "details": "PC12 HttQ103-GFP aggregates, Acumen cytometry, 40 h; activity change, negative = inhibition: at 46.1 µM (top of the series) unless noted", "outline": "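PC12/HTTQ103-GFP, ecdysone-inducible; teb 100 nM; cpd qHTS titration; GFP aggregates read on laser cytometer, Ex 488/Em 500-530 nm.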", "values": [
      {"molecule": "CCCCCCCCCCS(=O)(=O)N/N=C/c1ccccc1OC", "Potency": "inconclusive: 17.8 µM [inhibitor, single point]"},
      {"molecule": "COC(=O)C1=C(C)N(CCc2c[nH]c3ccccc23)C(=O)C1", "activity change, negative = inhibition": "inactive: 5.42% [at 9.22 µM]"},
      {"molecule": "O=C(NCC(c1cccs1)N1CCOCC1)c1ccco1", "note": "(configuration not stated)", "Potency": "inconclusive: 5.62 µM [inhibitor, single point]"},
      {"molecule": "Cc1cc(NCCC(C)C)n2nc(C)c(-c3ccccc3)c2n1", "Potency": "inconclusive: 3.55 µM [activator, partial curve]"},
      {"molecule": "CC(c1ccccc1)C1CC(=O)N(Cc2ccco2)C1=O", "note": "(configuration not stated)", "Potency": "inactive"},
      {"molecule": "N/C(=N\\OC(=O)N1CCOCC1)c1ccccc1", "Potency": "inconclusive: 35.5 µM [inhibitor, single point]"},
      {"molecule": "O=C(CCCn1c(=O)[nH]c2cc(Cl)ccc2c1=O)NCC1CCCO1", "note": "(configuration not stated)", "Potency": "inactive"},
      {"molecule": "CCCC(=O)NC(c1ccc2c(c1)OCO2)c1cc(Cl)c2cccnc2c1O", "note": "(configuration not stated)", "Potency": "active: 2.82 µM"},
      {"molecule": "Clc1ccc(Cn2ncc3c(N4CCOCC4)ncnc32)cc1", "Potency": "inconclusive: 0.447 µM [activator, partial curve]"},
      {"molecule": "COc1cc(NC(=O)CSc2nccc(C)n2)c(C)cc1[N+](=O)[O-]", "Potency": "inactive"},
      {"molecule": "Cc1ccc(-n2nc(-c3cccnc3)cc2C(=O)N2CCOCC2)c(C)c1", "Potency": "inconclusive: 2 µM [inhibitor, partial curve]"},
      {"molecule": "COc1ccccc1-n1cnc2cc(C(=O)NC3CCCC3)ccc21", "Potency": "inconclusive: 8.91 µM [inhibitor, single point]"},
      {"molecule": "CCCCN1CNC(=S)N(Cc2ccccc2)C1", "Potency": "inactive"},
      {"molecule": "Cc1[nH]c2ccccc2c1/C=C/c1cc[n+](C)cc1", "Potency": "inconclusive: 11.2 µM [inhibitor, single point]"},
      {"molecule": "O=C(c1cccc([N+](=O)[O-])c1)n1nc(-c2ccccc2)nc1NCc1ccccc1", "Potency": "inconclusive: 3.55 µM [inhibitor, single point]"},
      {"molecule": "CN(CC(=O)Nc1ccc(S(=O)(=O)N2CCCC2)cc1)Cc1ccc(Cl)c(Cl)c1", "Potency": "inconclusive: 6.31 µM [inhibitor, full curve, poor fit]"},
      {"molecule": "CCC(C)(C)C(=O)Nc1cc([N+](=O)[O-])ccc1F", "Potency": "inconclusive: 1.26 µM [inhibitor, single point]"},
      {"molecule": "CCCCOC(=O)c1c(C)oc2ccc(NS(=O)(=O)c3ccc4c5c(cccc35)C(=O)N4)cc12", "Potency": "inconclusive: 0.562 µM [inhibitor, full curve, poor fit]"},
      {"molecule": "Cc1cc2n(n1)C(c1ccccc1)Nc1ccccc1-2", "note": "(configuration not stated)", "Potency": "inconclusive: 1.26 µM [inhibitor, single point]"},
      {"molecule": "CCCn1nc([N+](=O)[O-])c(C(C#N)c2nc3ccccc3o2)c(Cl)c1=O", "note": "(configuration not stated)", "Potency": "inconclusive: 35.5 µM [inhibitor, single point]"},
      {"molecule": "COc1ccc(OC)c(-n2c(-c3ccc(S(C)(=O)=O)cc3)cc(C=O)c2C)c1", "Potency": "inconclusive: 35.5 µM [activator, single point]"},
      {"molecule": "COc1cc2c(O)c3c(c(-c4ccc5c(c4)OCO5)c2cc1OC)C(=O)OC3", "Potency": "inconclusive: 2.24 µM [inhibitor, full curve, poor fit]"},
      {"molecule": "COc1cc2c(cc1NC(=O)c1cccnc1)CCCC2", "Potency": "inactive"},
      {"molecule": "CC(C)(C)Cc1nnc(NC(=O)c2ccc([N+](=O)[O-])cc2)s1", "Potency": "inactive"},
      {"molecule": "Cc1ccc(N2CCN(C(=O)Nc3cccc([N+](=O)[O-])c3)CC2C)cc1", "note": "(configuration not stated)", "Potency": "inconclusive: 35.5 µM [inhibitor, single point]"},
      {"molecule": "O=C(Nc1ccccc1)N1CCN(c2cccc(C(F)(F)F)c2)CC1", "Potency": "inconclusive: 35.5 µM [inhibitor, single point]"},
      {"molecule": "C=C(C)COc1ccc(-c2n[nH]c(C)c2-c2ccc(Br)cc2)c(O)c1", "Potency": "active: 7.94 µM"},
      {"molecule": "COc1ccc(N2CCN(Cc3ccc(Br)s3)CC2)cc1", "Potency": "inconclusive: 14.1 µM [inhibitor, single point]"},
      {"molecule": "CCN1CCN(C(=O)N[C@@H](C(=O)N[C@@H]2C(=O)N3[C@@H]2SC(C)(C)[C@@H]3C(=O)O)c2ccccc2)C(=O)C1=O", "Potency": "inactive"},
      {"molecule": "COc1nnc(-c2ccc(N3CCOCC3)c(NC(=O)c3ccc(C)cc3)c2)c2ccccc12", "Potency": "inconclusive: 14.1 µM [inhibitor, single point]"},
      {"molecule": "COc1ccc(Cl)cc1NC(=O)CN(C(=O)c1ccco1)C1CCCCC1", "Potency": "inconclusive: 10 µM [inhibitor, partial curve]"},
      {"molecule": "Cc1c(Cl)c([N+](=O)[O-])nn1Cc1ccc(C(=O)N/N=C\\c2cccc(Br)c2)o1", "Potency": "inconclusive: 12.6 µM [inhibitor, single point]"},
      {"molecule": "Cc1ccc2nc(-c3ccc(O)cc3)c(Nc3ccc4c(c3)OCCO4)n2c1", "Potency": "inconclusive: 15.8 µM [activator, single point]"},
      {"molecule": "COc1ccccc1N1CCN(C(c2ccccc2Cl)c2nnnn2C(C)(C)C)CC1", "note": "(configuration not stated)", "Potency": "inconclusive: 35.5 µM [inhibitor, single point]"},
      {"molecule": "O=C1C2C(C(=O)N1/N=C/c1cc(Br)cc([N+](=O)[O-])c1O)C1C=CC2C12CC2", "note": "(configuration not stated)", "Potency": "inconclusive: 35.5 µM [inhibitor, single point]"},
      {"molecule": "CCC1CCCCN1CCCNC(=O)c1cc2c(Cl)nc3ccccc3c2s1", "note": "(configuration not stated)", "Potency": "inconclusive: 17.8 µM [inhibitor, single point]"},
      {"molecule": "COC(=O)c1ccc2ncccc2c1", "Potency": "inconclusive: 0.562 µM [inhibitor, partial curve, poor fit]"},
      {"molecule": "Cc1ccc(-n2nc3c(c2NC(=O)/C=C\\c2ccc4c(c2)OCO4)CSC3)cc1", "Potency": "inconclusive: 3.55 µM [activator, partial curve]"},
      {"molecule": "NNc1nnc(-c2ccccc2)c(-c2ccccc2)n1", "activity change, negative = inhibition": "inactive: 8.43% [at 9.22 µM]"},
      {"molecule": "CCCCC(=O)/C=C/n1c(=S)oc2ccccc21", "Potency": "inconclusive: 20 µM [inhibitor, single point]"},
      {"molecule": "Cc1ccc(/C([O-])=C(/C(=S)NCc2ccco2)[n+]2ccccc2)cc1", "Potency": "inactive"},
      {"molecule": "COc1ccccc1CNC(=O)C1CC(c2c(Cl)cccc2Cl)=NO1", "note": "(configuration not stated)", "Potency": "inconclusive: 12.6 µM [inhibitor, single point]"},
      {"molecule": "CCN1CCN(C(=O)c2cc3cc4ccc(OC)cc4nc3s2)CC1", "Potency": "inconclusive: 0.562 µM [inhibitor, partial curve, poor fit]"},
      {"molecule": "COc1ccc(-c2ncncc2-c2csc(C)n2)c(O)c1OC", "Potency": "inactive"},
      {"molecule": "COc1ccc(-c2nc(-c3cccs3)c(-c3cccs3)[nH]2)cc1OC", "Potency": "inconclusive: 11.2 µM [inhibitor, partial curve]"},
      {"molecule": "O=C(Cc1cccs1)N/N=C/C=C/c1ccco1", "Potency": "inactive"},
      {"molecule": "COc1ccc(-c2cc(C(F)F)nc(-n3nc(C)cc3C)n2)cc1", "Potency": "inconclusive: 35.5 µM [inhibitor, single point]"},
      {"molecule": "CS(=O)(=O)c1ccc2nc(NC(=O)c3ccc(NS(=O)(=O)c4ccc(F)c(F)c4)cc3)sc2c1", "activity change, negative = inhibition": "inactive: -2.21% [at 9.22 µM]"},
      {"molecule": "O=C(CSc1nnc(Cc2ccccc2)n1-c1ccc(F)cc1)N1CCOCC1", "Potency": "inactive"},
      {"molecule": "O=C(Nc1ccc(Br)cn1)c1ccc([N+](=O)[O-])o1", "Potency": "inconclusive: 28.2 µM [inhibitor, single point]"},
      {"molecule": "Cc1ccc(/C=C/C(=O)Nc2nnc(SCc3ccc(C#N)cc3)s2)o1", "Potency": "inconclusive: 25.1 µM [activator, single point]"},
      {"molecule": "O=C(C1CCN(S(=O)(=O)c2ccc(Br)s2)CC1)N1CCc2ccccc21", "Potency": "inconclusive: 10 µM [inhibitor, single point]"},
      {"molecule": "CCOC(=O)c1c(C)[nH]c(C)c1C(=O)CSc1nc2ccccc2c(=O)n1-c1ccc(C)cc1", "Potency": "inconclusive: 35.5 µM [inhibitor, single point]"},
      {"molecule": "CCOC(=O)CCNC(=O)Nc1ccc2nc(C)n(Cc3ccccc3Cl)c(=O)c2c1", "Potency": "inconclusive: 3.16 µM [inhibitor, partial curve]"},
      {"molecule": "Cn1c(Cl)cnc1C1CC(=O)c2cc(Cl)ccc2O1", "note": "(configuration not stated)", "Potency": "inconclusive: 4.47 µM [inhibitor, full curve, poor fit]"},
      {"molecule": "CNC(=O)/C(C#N)=C\\c1ccc(CNS(=O)(=O)c2ccccc2)o1", "Potency": "inactive"},
      {"molecule": "CC(NC(=O)c1ccccc1Br)c1ccc2c(c1)CCCC2", "note": "(configuration not stated)", "Potency": "inconclusive: 0.562 µM [inhibitor, full curve, poor fit]"},
      {"molecule": "CSc1nc(Oc2ccc3ccccc3c2)c2ccccc2n1", "Potency": "active: 10 µM"},
      {"molecule": "CN1CCN(C(=S)c2ccc(N(C)C)cc2)CC1", "Potency": "inactive"},
      {"molecule": "CCn1cc(C(=O)NCc2ccccc2)c(=O)c2cc(F)c(N3CCN(C(=O)c4ccco4)CC3)cc21", "Potency": "inconclusive: 11.2 µM [inhibitor, single point]"},
      {"molecule": "CCOC(=O)CC(=O)CSc1nc(N)c(C#N)c(-c2ccc(F)cc2)c1C#N", "Potency": "inconclusive: 12.6 µM [inhibitor, partial curve]"},
      {"molecule": "CC(C)(O)C#Cc1ccc([C@@H]2C[C@H]3CN(c4ccccc4)C(=O)[C@]34CCCN24)s1", "Potency": "inconclusive: 3.98 µM [inhibitor, single point]"},
      {"molecule": "N#Cc1ccc(NC(=O)Nc2cccc(C#N)c2)cc1", "activity change, negative = inhibition": "inactive: -30.7% [at 9.22 µM]"},
      {"molecule": "COCCNCC(=O)NCC12CC3CC(CC(C3)C1)C2", "activity change, negative = inhibition": "inactive: -12.5% [at 9.22 µM]"},
      {"molecule": "CC1=C(C)/C(=N\\OC(=O)/C=C/c2ccccc2)C=CC1=O", "Potency": "inconclusive: 35.5 µM [inhibitor, single point]"},
      {"molecule": "O=C(CSc1ccccc1Cl)NC1CCCc2ccccc21", "note": "(configuration not stated)", "Potency": "inconclusive: 5.62 µM [inhibitor, single point]"},
      {"molecule": "COc1ccc(/C=C(/NC(=O)c2ccccc2)C(=O)N/N=C/c2ccc3c(c2)OCO3)cc1OC", "Potency": "inconclusive: 0.355 µM [activator, full curve, poor fit]"}
    ]}
  ]
}
